# Primary screen of a compound library

Results are given as percent effect. How 0% and 100% were set is not recorded. Most values in the screen are low, and negative values occur. The compounds are a random part of those screened.

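Assay of Toxoplasma gondii numbers, read through their beta-galactosidase reporter with a colour substrate. Compounds at 50 µM. The record gives no direction; the compounds picked for IC50 retests had high values, so higher reads as fewer parasites. Size under these conditions: about 18,000 compounds, about 170 of them at 50% or above in at least one test.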

* OCC1(CO)COC1 : -7.033%
* CC(CN)N(C)C(=O)OC(C)(C)C (stereo unspecified) : -10.38%
* Cc1cc(C)c(NC(=O)N[C@@H]2CCNC[C@H]2O)c(Cl)c1 : 12.73%
* CNCc1nnc(C2CC2)n1C : 5.99%
* CC(C)OCCC(NC(=O)OC(C)(C)C)C(N)=O (stereo unspecified) : -10.27%
* CC(C)(C)C(=O)Nc1ccc(N2CCNC(=O)C2)cc1 : -7.491%
* COc1cccc(NS(=O)(=O)c2cn(C)c(C)n2)c1 : -3.14%
* NC1CCc2nnc(Cc3ccccc3)n2C1 (stereo unspecified) : -3.507%
* CC(N)CCNS(=O)(=O)N1CCCCCC1 (stereo unspecified) : -6.062%
* CCCC(=O)N1C[C@@H](CO)[C@H](N(C)C)C1 : -11.54%
* CC(CCc1ccc(O)cc1)NCCN1CCOCC1 (stereo unspecified) : -1.81%
* COC(=O)N1CCc2n[nH]c(=O)cc2C1 : -8.288%
* COc1ccc(Cl)cc1NC(=O)N[C@@H]1CNCC[C@H]1O : -7.607%
* COCc1nnc(-c2ccc3c(c2)OCO3)o1 : 23.78%
* CCCS(=O)(=O)c1ccccc1C(=O)NC(C)C : -6.046%
* CC(O)CN(C)Cc1cc(C#N)cs1 (stereo unspecified) : -7.297%
* CCn1ccc(C(=O)NC(C)c2ccccc2)n1 (stereo unspecified) : 15.72%
* CNCc1cc2ccccc2nc1O : -26.5%
* Cc1nc2ccccn2c1C(=O)N[C@@H]1COCC[C@H]1O : -5.658%
* O=C1Nc2ccccc2C1O (stereo unspecified) : -7.262%
* NCC1CCCN(C2CCCC2)C1 (stereo unspecified) : 9.824%
* O=C(CCCc1nccs1)NCC(=O)N1CCCCC1 : -25.72%
* CC(=O)N1CCN(C(=O)C2CCNCC2)CC1 : -10.72%
* CCN(Cc1ccc(Cl)s1)C(=O)c1ccc(=O)n(C)n1 : -9.055%
* Cc1ccccc1CS(=O)(=O)Cc1nsc(N(C)C)n1 : -11.5%
* CC1CN(C)CCN1CC(=O)Nc1ccc(Br)cn1 (stereo unspecified) : 4.032%
* CC[C@H](C)[C@H](N)C(=O)NCCc1noc(C(C)C)n1 : -7.312%
* CC1(CNC(=O)c2cccc(OC(F)F)c2)COC1 : -6.752%
* Cc1nc(CNC(=O)c2ccc3c(c2)N(C)CC3)no1 : 2.447%
* Cc1ccc(CN2CCC(CNS(N)(=O)=O)CC2)cc1 : 14.14%
* CC(=O)NCc1ccc(-c2nc(C3CC3)no2)s1 : -19.16%
* N[C@@H]1C[C@H]1c1c(F)cccc1F : -7.42%
* Cc1nn(CCC(=O)NCCN2CCOCC2)cc1Br : -5%
* O=C(CNCC1CC1)Nc1ccccc1 : -14.06%
* CC1(C)CCC(CN)O1 (stereo unspecified) : 2.132%
* c1ccc(CNCc2c[nH]nn2)cc1 : 7.827%
* CC(C)=CCNC(=O)Nc1ncnn1C : -5.644%
* CC(C)c1ccc(NC(=O)COCC(=O)N(C)C)cc1 : -13.69%
* CN(C)CCSCc1noc(C2CCOCC2)n1 : 3.748%
* CCN1CCCN(C(=O)c2ccccc2COC)CC1 : 3.121%
* O=C(C1CC1)N1CCN(Cc2cccc(F)c2)CC1 : -5.374%
* NCCSCc1ccccc1F : -23.16%

Repeated from the top, 5 entries:

{"structure": "OCC1(CO)COC1", "percent effect": -7.033}
{"structure": "CC(CN)N(C)C(=O)OC(C)(C)C", "stereo": "stereo unspecified", "percent effect": -10.38}
{"structure": "Cc1cc(C)c(NC(=O)N[C@@H]2CCNC[C@H]2O)c(Cl)c1", "percent effect": 12.73}
{"structure": "CNCc1nnc(C2CC2)n1C", "percent effect": 5.99}
{"structure": "CC(C)OCCC(NC(=O)OC(C)(C)C)C(N)=O", "stereo": "stereo unspecified", "percent effect": -10.27}

The values are deposited in ChEMBL (CHEMBL3988442, “University of Dundee, Small-Polar-MMV Screening Library” (2021)).